Reference: PubChem BioAssay AID2551 (National Center for Advancing Translational Sciences (NCATS), 2010)
Among all 310,000 compounds or so, about 17,000 (5.5%) were called active. This list was built around the results that the source calls inconclusive (neither active nor inactive); the mix of calls is not that of the screen. Calls come from the whole dose curve; as a rule, active = well fitted inhibition curve with a large enough effect; inconclusive = small, poorly fitted or top-dose-only effect, or effect the other way; inactive = no such curve, though single readings can be large or run the other way. Potencies of inconclusive entries are doubtful fits and often do not repeat.

Amino acid sequences for entries named in this document (tags omitted). A change or cut given only in a name is not applied to a line headed by its entry.
UniProt P51450: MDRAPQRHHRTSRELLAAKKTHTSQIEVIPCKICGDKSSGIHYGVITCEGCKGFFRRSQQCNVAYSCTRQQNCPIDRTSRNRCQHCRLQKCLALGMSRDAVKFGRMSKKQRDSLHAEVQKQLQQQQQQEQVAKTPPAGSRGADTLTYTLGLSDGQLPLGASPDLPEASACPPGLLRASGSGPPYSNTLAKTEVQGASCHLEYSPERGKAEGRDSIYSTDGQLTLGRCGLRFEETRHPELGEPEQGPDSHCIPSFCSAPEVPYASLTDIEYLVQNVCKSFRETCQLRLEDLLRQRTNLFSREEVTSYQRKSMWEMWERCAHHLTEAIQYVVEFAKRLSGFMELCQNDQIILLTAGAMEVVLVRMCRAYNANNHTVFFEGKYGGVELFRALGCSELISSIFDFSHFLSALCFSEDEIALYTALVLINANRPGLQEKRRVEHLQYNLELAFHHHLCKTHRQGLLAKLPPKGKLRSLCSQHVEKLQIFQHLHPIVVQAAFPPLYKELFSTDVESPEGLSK

Target: Nuclear receptor ROR-gamma (Mus musculus) (UniProt P51450)
Experiment: qHTS for inhibitors of ROR gamma transcriptional activity; note: nearly all actives have a fitted effect of over 60% in size
Conditions: Drosophila S2 Gal4-RORgamma UAS-luciferase reporter, 20 h; activity change, negative = inhibition: at 53.6 µM (top of the series)
How it was run: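 ROR gamma transcriptional activity was tracked as Gal4-UAS luciferase output in stably transfected Drosophila Schneider cells, with compound added 1 hr before 700 uM copper sulfate induction and a 20 hr ambient-temperature incubation.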
% is set by controls: 0 for no effect and ±100 for the full control effect; potency is the fitted concentration of half-maximal effect.

SMILES	Potency	activity change, negative = inhibition
Cc1ccc(N(CC(=O)NCc2ccc(F)cc2)C(=O)CCC(=O)Nc2ccccn2)cc1C	inconclusive: 11.2 µM [activator, single point]	
CC(=O)Nc1ccc(NC(=O)CCCNC(=O)c2ccc(Cl)cc2)cc1		inactive: 9.12%
Cc1cc(N/N=C/c2ccncc2)c([N+](=O)[O-])cc1[N+](=O)[O-]		inactive: -6.94%
COc1cccc(C2=CC(c3ccccc3)n3ncnc3N2)c1 (stereo not drawn)		inactive: -22%
COc1ccc(S(=O)(=O)NCCN2CCOCC2)c(C)c1C	inconclusive: 11.2 µM [inhibitor, single point]	
NCc1oc(-c2ccccc2)cc1C(=O)O		inactive: -0.0323%
CC(C)OCCCNC(=O)NC12CC3CC(CC(C3)C1)C2	inconclusive: 4.47 µM [activator, single point]	
COc1cccc(-c2csc(N3CCN(C(=O)Nc4ccc(F)cc4)CC3)n2)c1		inactive: 3.02%
COc1ccccc1-n1c(-c2ccccc2)n[nH]c1=S	active: 7.08 µM	
COc1ccc(CCNC(=O)c2cc(-c3ccc(C)cc3O)n[nH]2)cc1OC		inactive: -13.6%
O=C(c1ccco1)N(CCC(c1ccccc1)c1ccco1)Cc1ccccc1 (stereo not drawn)	inconclusive: 31.6 µM [activator, single point]	
CC(C)CC1(C)N=C(c2ccccc2)C(=S)N1 (stereo not drawn)	active: 2.82 µM	
N#Cc1ccccc1COc1ccc(/C=C/C(=O)O)cc1	active: 0.178 µM	
Cc1ccnc(NC(=O)/C=C/c2ccccc2[N+](=O)[O-])c1		inactive: -27.1%
CCOC(=O)C1CCCN(C(=O)c2ccc(OC(C)=O)cc2)C1 (stereo not drawn)	inconclusive: 0.631 µM [inhibitor, full curve, poor fit]	
CCN(CC)c1cccc(OC2=NS(=O)(=O)c3ccccc32)c1		inactive: 12.1%
Cc1ccc(NC(=O)N2CCc3ccccc32)cc1C	inconclusive: 22.4 µM [inhibitor, single point]	
CC1(C)CC(=O)C(N=Nc2cccc(S(=O)(=O)N3CCOCC3)c2)=C(O)C1		inactive: 6.42%
COCCNc1ncnc2ccc(-c3cccc(NS(C)(=O)=O)c3)cc12	inconclusive: 7.08 µM [activator, partial curve]	
O=C(c1n[nH]c2c1CCC2)N1CCCC(Nc2cccc(F)c2)C1 (stereo not drawn)		inactive: 23.1%
CSc1cccc(NC(=O)C(=O)NCc2ccccc2)c1		inactive: -10.7%
COc1ccc(C)cc1NCC(=O)Nc1ccc(C(C)(C)C)cc1	inconclusive: 31.6 µM [activator, single point]	
COc1ccc(CCNC(=S)Nc2cc(C)cc(C)c2)cc1	active: 7.08 µM	
CC1CC(=O)N(c2ccc(NCc3ccc(Cl)cc3)c([N+](=O)[O-])c2)C1=O (stereo not drawn)	inconclusive: 10 µM [activator, partial curve]	
N#Cc1cc2c(nc1SCc1ccncc1)CCC2	inconclusive: 14.1 µM [inhibitor, single point]	
COc1ccc(Sc2ccc(NC(=O)c3ccccc3Cl)cc2C#N)cc1	inconclusive: 12.6 µM [activator, partial curve]	

Pulled by compound from above, 2 records:
SMILES	Potency	activity change, negative = inhibition
COc1ccccc1-n1c(-c2ccccc2)n[nH]c1=S	active: 7.08 µM	
O=C(c1ccco1)N(CCC(c1ccccc1)c1ccco1)Cc1ccccc1 (stereo not drawn)	inconclusive: 31.6 µM [activator, single point]	

More structures.

SMILES	Potency	activity change, negative = inhibition
O=C(NCCC1=CCCCC1)c1cnccn1	inconclusive: 0.891 µM [activator, full curve]	
O=C(COc1cccc2cccnc12)NCc1cccs1		inactive: 8.86%
CS(=O)(=O)Nc1cccc(-c2nc(NCc3cccnc3)c3ccccc3n2)c1		inactive: 15.2%
Clc1ccccc1Cc1noc(CN2CCN(Cc3ccccn3)CC2)n1		inactive: -14.3%
CCCn1c(SCC(=O)NC)nc2sc3c(c2c1=O)CCC3		inactive: 2.69%
O=C(Nc1ncc(Cc2ccc(SC(F)F)cc2)s1)c1ccccc1	active: 12.6 µM	
CCOC(=O)C1CCN(S(=O)(=O)c2ccc(-n3cnnn3)c(C)c2)CC1	inconclusive: 0.005 µM [inhibitor, full curve, poor fit]	
CCOC(=O)N1CCC(Nc2nc3ccccc3nc2NS(=O)(=O)c2ccc(Cl)cc2)CC1	inconclusive: 0.631 µM [activator, full curve]	
CCCNC(=O)OC[C@@H]1O[C@H](CCO/N=C(\C)CCC(=O)OC[C@@H]2O[C@H](C#Cc3ccccc3)C=C[C@@H]2Oc2ccc(C)cc2)C=C[C@@H]1Oc1ccc(OC)cc1		inactive: -3.15% [at 10 µM]
Cc1ccc(S(=O)(=O)c2cn(C)c3cc(N4CCN(C)CC4)c(F)cc3c2=O)c(C)c1	inconclusive: 35.5 µM [inhibitor, single point]	
Cc1cccc(C)c1NC(=S)NCCc1ccc(O)c(O)c1	active: 7.94 µM	
CCOC(=O)c1nc(NNC(=O)c2ccc([N+](=O)[O-])cc2)sc1C	inconclusive: 0.447 µM [inhibitor, full curve]	
Cc1[nH]c2ccccc2c1C(=O)C(C)OC(=O)c1ccc([N+](=O)[O-])o1 (stereo not drawn)	active: 14.1 µM	
O=S1(=O)CC=C(CSC(=S)NC2CCS(=O)(=O)C2)C1 (stereo not drawn)		inactive: -25.9%
COC(=O)c1cccc(NC(=O)c2onc3c2CCCC3)c1	active: 7.08 µM	
Cc1cccc(-n2c(=O)c3c4c(sc3n3c(=S)[nH]nc23)CCC4)c1	inconclusive: 22.4 µM [inhibitor, single point]	
COc1cc(C(=O)NCc2nnc(SCC(=O)Nc3nc4ccccc4s3)o2)cc(OC)c1OC		inactive: 0.0978%
CC(=O)Nc1cc(-c2nc3ccccc3o2)ccc1Cl	inconclusive: 35.5 µM [activator, single point]	
CCC(C)(C)c1ccc(OC(=O)c2cccnc2Cl)cc1	inconclusive: 15.8 µM [activator, single point]	
COCCN1C=C(C(=O)OC)C(c2ccc3c(c2)OCO3)C(C(=O)OC)=C1	inconclusive: 35.5 µM [inhibitor, single point]	
Cc1ccc2c(CN3CCC(C(N)=O)CC3)cc(=O)oc2c1C	inconclusive: 17.8 µM [inhibitor, single point]	
Cc1nn(-c2ccccc2)c(C)c1/C=N/NC(=O)c1cc(-c2cccc3ccccc23)n[nH]1	inconclusive: 12.6 µM [activator, partial curve, poor fit]	
Cc1ccc(C)c2sc(NC(=O)c3nc4ccccc4s3)nc12	active: 1 µM	
Cc1ccc(NC(=S)N(CCN(C)C)Cc2cccs2)cc1C	inconclusive: 22.4 µM [inhibitor, single point]	
CCCCSc1cc(C)nc(N)n1		inactive: 23.2%
CCC(NC(=S)NCc1ccc(F)cc1)c1ccc(C(C)C)cc1 (stereo not drawn)	active: 2.82 µM	

SMILES	Potency	activity change, negative = inhibition
O=C(c1ccc(Cl)cc1)c1ccc(OCC(=O)N2CCOCC2)cc1	inconclusive: 35.5 µM [inhibitor, single point]	
CC1(C)Cc2ccccc2C(NNC(=O)c2ccccc2)=N1		inactive: -12.4%
O=C(CNc1ccc2c(c1)OCO2)N/N=C\c1cn(Cc2ccccc2)c2ccccc12	active: 12.6 µM	
C/C(=N/NC(=O)c1cc(-c2ccccc2)nc2c(Cl)cccc12)c1cccnc1	active: 17.8 µM	
CCCn1c(C)cc(C(=O)COC(=O)c2nccnc2N)c1C	inconclusive: 35.5 µM [inhibitor, single point]	
Oc1ccccc1N=Cc1c(O)ccc2ccccc12	active: 8.91 µM	
COc1cccc(C(C(=O)NC(C)(C)C)N(Cc2ccc(F)cc2)C(=O)CCC(=O)Nc2cc(C)on2)c1OC (stereo not drawn)		inactive: -10.4%
CCn1c(N2CCN(Cc3ccc([N+](=O)[O-])cc3)CC2)nc2ccccc21		inactive: -17.1%
CN(Cc1ccc(Cl)cc1)C(=O)CCl	inconclusive: 11.2 µM [inhibitor, partial curve]	
O=C(NN1CCOCC1)c1cc(-c2ccc(Cl)c(Cl)c2)nc2ccccc12		inactive: 2.99%
CC1=C(C(=O)OCc2ccccc2)C(c2ccc(Br)cc2)NC(=O)N1CCCC(=O)O (stereo not drawn)	inconclusive: 22.4 µM [inhibitor, single point]	
COc1cc(C(=O)Nc2ccc(N3CCOCC3)cc2)ccc1OCc1c(C)noc1C	inconclusive: 2.82 µM [activator, partial curve, poor fit]	
COCc1nnc(NC(=O)COc2ccc3c(c2)OCO3)s1		inactive: -24.6%
COc1ccc(/C=N/Nc2nc(N3CCCC3)nc(N3CCCC3)n2)cc1O	active: 11.2 µM	
NC(=O)c1snnc1-c1ccccc1		inactive: -0.901%
CC(C)c1ccc(CCNC(=O)CCNC(=O)c2ccc(Br)cc2)cc1	inconclusive: 3.98 µM [inhibitor, single point]	
COc1ccc(C(=O)C2CCN(C(=O)c3ccco3)CC2)cc1	inconclusive: 35.5 µM [activator, single point]	
COCc1[nH]nc2c1C(c1c(F)cccc1Cl)C(C#N)=C(N)O2 (stereo not drawn)	inconclusive: 15.8 µM [inhibitor, single point]	
CCCc1[nH]n(-c2nc3ccccc3s2)c(=O)c1C=NCC(C)C	inconclusive: 2.82 µM [inhibitor, partial curve, poor fit]	
COc1ccc2cc3c(N)nn(C(=O)Cc4ccc(Cl)cc4)c3nc2c1	inconclusive: 17.8 µM [inhibitor, single point]	
Nc1c(C(=O)Nc2cccc(C(=O)O)c2)sc2nc3c(cc12)CCCC3	active: 2.82 µM	
Cc1n[nH]c(=O)nc1N/N=C/c1ccco1	inconclusive: 22.4 µM [inhibitor, single point]	
Cc1ccccc1C(=O)O	inconclusive: 31.6 µM [activator, single point]	
COc1ccc(NC(=O)Cc2nnc(SCC(=O)Nc3ccccc3)n2C)cc1		inactive: -25.9%
Cc1ccc(OC(F)F)c(NC(=O)Nc2cccc(C(F)(F)F)c2)c1	active: 5.01 µM	
O=C(Nc1cccc([N+](=O)[O-])c1)C1CCN(C(=O)Cc2ccccc2)CC1	inconclusive: 11.2 µM [activator, partial curve]	

Exported with each value named: entries from further up
CC1(C)Cc2ccccc2C(NNC(=O)c2ccccc2)=N1
  activity change, negative = inhibition: inactive: -12.4%
O=C(CNc1ccc2c(c1)OCO2)N/N=C\c1cn(Cc2ccccc2)c2ccccc12
  Potency: active: 12.6 µM
C/C(=N/NC(=O)c1cc(-c2ccccc2)nc2c(Cl)cccc12)c1cccnc1
  Potency: active: 17.8 µM
CCCn1c(C)cc(C(=O)COC(=O)c2nccnc2N)c1C
  Potency: inconclusive: 35.5 µM [inhibitor, single point]
